Assay results from patent publication EP1002537A1, “Use of melarsoprol for the manufacture of a medicament for treating B-cell lymphoproliferative diseases, such as multiple myeloma” (ASSISTANCE PUBLIQUE, HOPITAUX DE PARIS, priority 1998, dated 2000).
At least one structure is not confirmed: it was looked up by name or label, or the drawing left a doubt.

System: NCI cells
Assay: FACS analysis after annexin-V and propidium iodide staining
Type: cell-based, human
Details: 10^-6 mol/L, time period of 48 hours
Experimental: Direction of phosphatidylserine on the outer leaflet of apoptotic cells was performed using Annexin-V-FLUOS (Boehringer Mannheim, Germany) and propidium iodide (PI) according to the manufacturer's recommendations. Expression of cell surface CD38, CD138 (BB-4° and CD15 antigens was studied using corresponding fluorescein isothiocyanate (FITC) or phycierythrin conjugated antibodies that were purchased from Diaclone (Besançon, France) and Becton Dickinson (San Jose, Ca.). Flow cytometry was performed with a FACSean apparatus (Beckton Dickinson).
FACS analysis of NCI and U266 cells after staining with fluorescein-labelled annexin-V and propidium iodide was performed to detect the translocation of phosphatidylserine from the inner part of plasma membrane to the outer layer which accurs in the early stages of apoptosis. Before staining, cells were cultivated with medium alone) melarsoprol (10^-6 mol/L) or dexamethasone (Dex, 10^-6 mol/L) over a time period of 48 hours. […] During the same time; the number of double positive necrotic cells increased and, at 18 hours, only very few double-negative living cells were detectable. Apoptosis was moderate in cells cultured with Dex and in control culture. Annexin-positive, PI-negative apoptotic U266 cells were also observed in the presence of melarsoprol (18% of residual cells after a 18-hour culture).

SMILES: C[C@@H]1C[C@H]2[C@@H]3CCC4=CC(=O)C=C[C@]4(C)[C@@]3(F)[C@@H](O)C[C@]2(C)[C@@]1(O)C(=O)CO [Dex, dexamethasone]
- apoptosis (annexin-positive, PI-negative apoptotic cells): moderate
